Results reported in patent US12582614B2, “Composition for preventing, alleviating or treating sarcopenia, containing D-ribo-2-hexulose as active ingredient” (KYUNGPOOK NATIONAL UNIVERSITY INDUSTRY-ACADEMIC COOPERATION …, priority 2021, dated 2026).

Assay: Body weight, food intake and organ weights of aged mice fed 3% D-ribo-2-hexulose diet for 12 weeks
Format: in vivo, C57BL/6J male mice
Experimental: Twenty-one 48-week-old C57BL/6J male mice and seven 8-week-old C57BL/6J male mice were purchased from JA BIO Inc. (Korea). The purchased animals were raised in a breeding room with a controlled temperature (20 to 23° C.) and a light/dark cycle (a 12-hour cycle), and were provided with pelletized commercial non-purified feed for the first week.
Specifically, a negative control group (NC, n=7, American Institute of Nutrition AIN-93G Semisynthetic diet); a D-ribo-2-hexulose-treated group (D-ribo-2-hexulose; DRH, n=7; a portion of cellulose in AIN-93G was replaced with 3% D-ribo-2-hexulose). […] The dose of D-ribo-2-hexulose was set at 3% based on previous animal studies. In the previous studies, the dose of D-ribo-2-hexulose was determined to be 3% in order to investigate a biological effect at a lower dose than the dose. During the experiment, the mice had free access to distilled water, and the food intakes and body weights of the mice were measured weekly, and blood glucose was measured once every 4 weeks. All animal experiments were approved by the Animal Research Ethics Committee of KyungPook National University (Approval Number: KNU-2020-109).

[1] = DRH group, aged mice, AIN-93G + 3% DRH 12 weeks, Mean ± SD

For O=C(CO)[C@H](O)[C@H](O)[C@H](O)CO [DRH, D-ribo-2-hexulose], which “food efficiency ratio (FER)” value (DRH group vs NC group) is on record?
Its value is “significantly decreased”.

What about the food intake (DRH group vs NC group) of the same compound?
Its food intake is “not significantly different”.

What about the Energy intake [1] of the same compound?
The Energy intake was 13.23 ± 0.30 ^ g/day.

And the food intake [1]?
Its food intake is 3.46 ± 0.08 ^ g/day.
